Taken from: PubChem BioAssay AID1259254 (NCATS, 2017)

Screen: 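Genome-wide screen for genes that prevent DNA re-replication in cancer cells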 (primary screen)
System: human HCT116 colorectal cancer cells
Reagent: single siRNA against human genes
Time to read-out: 3 days
Measurement: 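Nuclei stained with Hoechst and imaged; cell-cycle phase assigned by DNA content; G2 share scaled per plate, non-targeting siRNA 0%, GMNN siRNA 100%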
Direction: G2 robust z-score and G2 cells, % of GMNN control: higher = more G2 cells, more excess DNA replication
Rule for the call: 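Active siRNAs have a G2 robust z of 5 or more median absolute deviations over the median, which in these data means about 38% or higher of GMNN control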
Here is an unselected part of about 59,000 reagents tested. Of all reagents, about 1,550 (2.6%) are marked active. 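G2 share is only a proxy for re-replication; each gene was hit by three separate siRNAs, and active genes were retested.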 A number with no mark means an inactive call. Reagents against one gene are numbered here. Not all columns of the deposit are shown. Not given: the amount of reagent.

Silencing of CHIA (GeneID 27159) #1 gave: G2 robust z-score 2.4; G2 cells, % of GMNN control 19.9.
Silencing of CHIA (GeneID 27159) #2 gave: G2 robust z-score 1.67; G2 cells, % of GMNN control 14.7.
For CHIA (GeneID 27159) #3 the deposit lists G2 robust z-score -0.548; G2 cells, % of GMNN control -0.891.
After knock-down of TET1 (GeneID 80312) #1, the screen gave G2 robust z-score -0.14; G2 cells, % of GMNN control 1.98.
After knock-down of TET1 (GeneID 80312) #2, the screen gave G2 robust z-score -0.0445; G2 cells, % of GMNN control 2.65.
For TET1 (GeneID 80312) #3 the deposit lists G2 robust z-score -0.867; G2 cells, % of GMNN control -3.13.
For OR2Y1 (GeneID 134083) #1, the entry reads G2 robust z-score -0.49; G2 cells, % of GMNN control -0.481.
With knock-down of OR2Y1 (GeneID 134083) #2, the record shows G2 robust z-score 1.11; G2 cells, % of GMNN control 10.7.
Against OR2Y1 (GeneID 134083) #3, the entry reads G2 robust z-score -0.124; G2 cells, % of GMNN control 2.09.
Silencing of ZNF655 (GeneID 79027) #1 gave: G2 robust z-score -1.09; G2 cells, % of GMNN control -4.69.
ZNF655 (GeneID 79027) #2 scored G2 robust z-score -0.00466; G2 cells, % of GMNN control 2.93.
With knock-down of ZNF655 (GeneID 79027) #3, the record shows G2 robust z-score 5.53 (active); G2 cells, % of GMNN control 41.9.
HDAC9 (GeneID 9734) #1 gave G2 robust z-score 1.1; G2 cells, % of GMNN control 10.7.
For HDAC9 (GeneID 9734) #2, the values are G2 robust z-score -0.662; G2 cells, % of GMNN control -1.69.
HDAC9 (GeneID 9734) #3 gave G2 robust z-score 0.308; G2 cells, % of GMNN control 5.13.
With knock-down of GOSR2 (GeneID 9570) #1, the screen gave G2 robust z-score 0.423; G2 cells, % of GMNN control 5.94.
For GOSR2 (GeneID 9570) #2, the values are G2 robust z-score -0.312; G2 cells, % of GMNN control 0.774.
For GOSR2 (GeneID 9570) #3, the values are G2 robust z-score -0.237; G2 cells, % of GMNN control 1.3.
After knock-down of WHRN (GeneID 25861) #1, the screen gave G2 robust z-score 20.3 (active); G2 cells, % of GMNN control 145.
Silencing of WHRN (GeneID 25861) #2 resulted in: G2 robust z-score -0.88; G2 cells, % of GMNN control -3.23.
For WHRN (GeneID 25861) #3 the deposit lists G2 robust z-score -0.732; G2 cells, % of GMNN control -2.18.
Against NPEPL1 (GeneID 79716) #1 the deposit lists G2 robust z-score 0.755; G2 cells, % of GMNN control 8.28.
For NPEPL1 (GeneID 79716) #2, the entry reads G2 robust z-score -0.209; G2 cells, % of GMNN control 1.5.
After knock-down of NPEPL1 (GeneID 79716) #3, the screen gave G2 robust z-score 0.194; G2 cells, % of GMNN control 4.33.

Reagents above marked active:
ZNF655 (GeneID 79027) #3 → G2 robust z-score: 5.53 (active); G2 cells, % of GMNN control: 41.9
WHRN (GeneID 25861) #1 → G2 robust z-score: 20.3 (active); G2 cells, % of GMNN control: 145
